Data as given in PubChem BioAssay AID743121 (NCATS, 2013).
Test: 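Knock-downs that sensitise breast cancer cells to camptothecin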 (primary screen). System: MDA-MB-231 cells, a human breast cancer line. Reagent: single siRNA against human genes, 20 nM siRNA (0.8 pmol per well). Time to read-out: 120 h (drug added 48 h after transfection, read 72 h later). Challenge: camptothecin 20 nM (about EC30) for 72 h; vehicle 0.1% DMSO in parallel plates. Read-out: 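Cell viability by ATP luminescence (CellTiter-Glo) as % of non-targeting siRNA wells, and the log2 ratio of viability without drug over viability with camptothecin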. Direction: log2 vehicle/camptothecin viability: higher = stronger sensitisation to camptothecin. Hit rule: 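Active genes have an RSA gene-level p-value below 0.001, computed from the ratios of their separate siRNAs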.
Here is one part, drawn at random, of about 26,000 reagents. Of all reagents, 167 (0.63%) got an active call. 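Calls are per gene from RSA p-values that are not deposited; an individual active-marked siRNA can sensitise only weakly.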 Further read-outs or replicates are left out here. Reagent sequences are not shown.

target gene	PubChem SID	log2 vehicle/camptothecin viability	Call
SGCG (sarcoglycan gamma)	SID164387819	-0.211	inactive
SGCG (sarcoglycan gamma)	SID164387820	-0.125	inactive
SGCG (sarcoglycan gamma)	SID164387824	-0.108	inactive
GABRQ (gamma-aminobutyric acid type A receptor subunit theta)	SID164487430	0.087	inactive
GABRQ (gamma-aminobutyric acid type A receptor subunit theta)	SID164487433	-0.373	inactive
GABRQ (gamma-aminobutyric acid type A receptor subunit theta)	SID164487435	0.0164	inactive
OVOL1 (ovo like transcriptional repressor 1)	SID164379133	-0.322	inactive
OVOL1 (ovo like transcriptional repressor 1)	SID164379134	0.0482	inactive
OVOL1 (ovo like transcriptional repressor 1)	SID164379135	-0.396	inactive
OVOL1 (ovo like transcriptional repressor 1)	SID164379136	0.215	inactive

Next part (4 carried over from the part before).
target gene	PubChem SID	log2 vehicle/camptothecin viability	Call
OVOL1 (ovo like transcriptional repressor 1)	SID164379133	-0.322	inactive
OVOL1 (ovo like transcriptional repressor 1)	SID164379134	0.0482	inactive
OVOL1 (ovo like transcriptional repressor 1)	SID164379135	-0.396	inactive
OVOL1 (ovo like transcriptional repressor 1)	SID164379136	0.215	inactive
NUP153 (nucleoporin 153)	SID164407793	0.117	inactive
NUP153 (nucleoporin 153)	SID164407795	0.83	inactive
NUP153 (nucleoporin 153)	SID164407797	0.312	inactive
TMPRSS7 (transmembrane serine protease 7)	SID164659335	-1.04	inactive
TMPRSS7 (transmembrane serine protease 7)	SID164659336	-0.0355	inactive
TMPRSS7 (transmembrane serine protease 7)	SID164659337	-0.0698	inactive
TMPRSS7 (transmembrane serine protease 7)	SID164659338	-0.305	inactive
STK38 (serine/threonine kinase 38)	SID164416978	0.128	inactive
STK38 (serine/threonine kinase 38)	SID164416979	-0.419	inactive
STK38 (serine/threonine kinase 38)	SID164416980	-0.309	inactive
STK38 (serine/threonine kinase 38)	SID164416984	0.0855	inactive
SLC19A2	SID164411933	-0.0491	inactive
SLC19A2	SID164411936	0.0449	inactive
SLC19A2	SID164411937	0.00786	inactive
IL18 (interleukin 18)	SID164371481	0.289	inactive
IL18 (interleukin 18)	SID164371484	-0.322	inactive
IL18 (interleukin 18)	SID164371486	0.0371	inactive
PPFIA3 (PPFI scaffold protein A3)	SID164398295	-0.00115	inactive
PPFIA3 (PPFI scaffold protein A3)	SID164398296	0.312	inactive
PPFIA3 (PPFI scaffold protein A3)	SID164398298	-0.246	inactive
PPFIA3 (PPFI scaffold protein A3)	SID164398299	-0.408	inactive
